Measurements published in patent US20070087959A1.
Results are given in words; binding and its absence hold for the method and conditions named. Some binding calls cover weakened binding; strength is not graded here.

Chains of the proteins cited; added tags and fusions are not shown. Lines headed by an entry give the natural chain unless they say otherwise; changes in a name come on top.
UniProt P06756: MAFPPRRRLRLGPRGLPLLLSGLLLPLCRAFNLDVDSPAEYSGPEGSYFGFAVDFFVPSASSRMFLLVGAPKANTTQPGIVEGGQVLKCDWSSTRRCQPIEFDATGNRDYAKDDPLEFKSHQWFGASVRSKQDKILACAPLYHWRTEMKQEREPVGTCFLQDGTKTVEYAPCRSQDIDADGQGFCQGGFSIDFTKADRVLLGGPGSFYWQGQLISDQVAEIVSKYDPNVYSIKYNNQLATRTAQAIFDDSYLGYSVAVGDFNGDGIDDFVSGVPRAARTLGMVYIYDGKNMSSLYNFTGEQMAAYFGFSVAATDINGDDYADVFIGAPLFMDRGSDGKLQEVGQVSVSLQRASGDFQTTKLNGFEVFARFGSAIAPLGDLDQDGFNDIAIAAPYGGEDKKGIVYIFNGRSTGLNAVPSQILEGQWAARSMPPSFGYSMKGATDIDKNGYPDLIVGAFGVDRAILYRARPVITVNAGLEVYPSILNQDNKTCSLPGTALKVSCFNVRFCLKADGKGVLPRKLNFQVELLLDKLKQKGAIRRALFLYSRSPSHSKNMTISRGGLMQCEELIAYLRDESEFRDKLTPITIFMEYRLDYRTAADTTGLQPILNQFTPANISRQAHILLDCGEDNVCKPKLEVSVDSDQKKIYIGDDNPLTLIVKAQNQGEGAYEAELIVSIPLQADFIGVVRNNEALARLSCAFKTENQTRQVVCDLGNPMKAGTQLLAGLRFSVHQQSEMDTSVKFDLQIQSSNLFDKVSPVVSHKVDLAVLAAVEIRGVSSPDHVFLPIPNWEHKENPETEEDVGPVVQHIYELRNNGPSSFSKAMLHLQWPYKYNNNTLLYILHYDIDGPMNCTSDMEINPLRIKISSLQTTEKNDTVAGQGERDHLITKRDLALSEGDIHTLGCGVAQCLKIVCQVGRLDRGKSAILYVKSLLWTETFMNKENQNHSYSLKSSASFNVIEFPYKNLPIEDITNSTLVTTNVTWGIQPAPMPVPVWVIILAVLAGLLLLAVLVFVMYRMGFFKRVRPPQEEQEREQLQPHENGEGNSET
UniProt P05106: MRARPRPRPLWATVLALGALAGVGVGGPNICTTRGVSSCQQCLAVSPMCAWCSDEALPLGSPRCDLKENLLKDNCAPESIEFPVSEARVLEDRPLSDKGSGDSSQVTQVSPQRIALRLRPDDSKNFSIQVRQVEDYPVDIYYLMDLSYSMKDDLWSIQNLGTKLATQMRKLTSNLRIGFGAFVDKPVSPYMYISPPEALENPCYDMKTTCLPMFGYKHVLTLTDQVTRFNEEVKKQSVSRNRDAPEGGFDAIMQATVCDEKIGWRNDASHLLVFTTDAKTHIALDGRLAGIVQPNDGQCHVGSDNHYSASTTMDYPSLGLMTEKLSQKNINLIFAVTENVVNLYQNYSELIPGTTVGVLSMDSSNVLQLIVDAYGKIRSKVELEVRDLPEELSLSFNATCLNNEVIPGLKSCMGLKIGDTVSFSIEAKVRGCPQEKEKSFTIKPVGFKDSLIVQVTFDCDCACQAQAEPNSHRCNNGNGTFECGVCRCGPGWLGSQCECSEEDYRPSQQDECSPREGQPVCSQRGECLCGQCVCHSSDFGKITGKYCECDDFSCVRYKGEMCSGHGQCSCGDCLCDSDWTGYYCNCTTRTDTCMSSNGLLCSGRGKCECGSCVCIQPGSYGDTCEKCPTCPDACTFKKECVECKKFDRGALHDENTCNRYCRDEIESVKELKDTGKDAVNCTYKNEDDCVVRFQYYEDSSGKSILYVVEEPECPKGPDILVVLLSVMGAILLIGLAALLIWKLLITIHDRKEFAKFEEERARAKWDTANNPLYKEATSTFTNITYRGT

Molecular target: ανβ3 integrin on human adult mesenchymal stem cells (hMSC) (human) (UniProt P06756+P05106)
Experiment: inferred from antibody blocking of rPP-induced Runx2 expression in hMSC (qPCR); no direct binding assay

binding: binds
B1: recombinant Phosphophoryn (rPP) (ligand)
chain: GIETEGPNKGNKSIITKESGKLSGSKDSNGHQGVELDKRNSPKQGESDKPQGTAEKSAAHSNLGHSRIGSSSNSDGHDSYEFDDESMQGDDPKSSDESNGSDESDTNSESANESGSRGDASYTSDESSDDDNDSDSHAGEDDSSDDSSGDGDSDSNGDGDSESEDKDESDSSDHDNSSDSESKSDSSDSSDDSSDSSDSSDSSDSSDSSDSSDSSDSSDSSDSNSSSDSSDSSGSSDSSDSSDTCDSSDSSDSSDSSDSSDSSDSSDSSDSSDSSDSSDSSSSSDSSDSSSCSDSSDSSDSSDSSDSSDSSDSSSSDSSSSSNSSDSSDSSDSSSSSDSSDSSDSSDSSDSSGSSDSSDSSASSDSSSSSDSSDSSSSSDSSDSSDSSDSSDSSESSDSSNSSDSSDSSDSSDSSDSSDSSDSSDSSDSSNSSDSSDSSDSSDSSDSSNSSDSSDSSDSSDSSDSSDSSDSSDSSDSSDSSDSSDSSDSSDSSDSSDSSDSSDSSDSSDSSDSSDSSNSSDSSDSDSKDSSSDSSDGDSKSGNGNSDSNSDSNSDSDSDSEGSDSNHSTSDD
